According to publication PMC12431657, “Discovery and mechanistic insights of dibenzoylmethane as a broad spectrum inhibitor of coronavirus” (PLOS Pathogens, 2025):
Where a name gives a salt, the structure may show the parent alone. Read-outs that look alike come from different tables or passages of the source. Out of some 3,300 compounds screened, about 60 (2%) showed an effect of 50% or more. Some of the results follow. Numbered stars: 1 amine (or outer) side, 2 acyl side, 3 side chain; on linkers, the order of the positions; unused ones are H or OH. Bridge positions count the residues as written; N and C are the ends. Square brackets hold non-standard residues; d marks the D form. Peptide text beside a SMILES is read from it. X2 = CC(C)CCCCCCCCC[C@H](CC(=O)[*:1])O[*:2]

Test system: HCoV-OC43
Parameters: species or system RD; HTS, protection from HCoV-OC43 induced cell death, luminescent cell viability (CellCounting-Lite 2.0), inhibition rate
Settings: 24 h post infection, 1 h compound pre-incubation, 10 µM, inhibitor

Structure (SMILES)	OC43 Inhibition rate (OC43 Inhibition rate, 24 h)	OC43 Inhibition rate
CC1=CC[C@@H](C(C)(C)O)CC1 [α-Terpineol]	-0.5%	
C[C@H](O)[C@H](O)c1cnc2nc(N)[nH]c(=O)c2n1 [6-Biopterin]		6.1%
OC[C@H]1O[C@@H](O[C@H]2[C@H](O)[C@@H](O)[C@H](O)O[C@@H]2CO)[C@H](O)[C@@H](O)[C@H]1O [Lactose]		0.1%
CCOC(=O)c1c(C)cc(O)cc1O [Ethyl Orsellinate]		-0.1%
c1ccc2c(c1)[nH]c1cnccc12 [Norharmane]		20.7%
C=C[C@H]1CN2CC[C@H]1C[C@H]2[C@H](O)c1ccnc2ccc(OC)cc12 [Quinine (hydrochloride dihydrate)]	5%	
C[N+](C)(C)[O-] [Trimethylamine N-oxide]	-1%	
O=c1ccc2ccccc2o1 [Coumarin]		6.5%
CC1=C(C/C=C(\C)CCCC(C)CCCC(C)CCCC(C)C)C(=O)c2ccccc2C1=O (stereo not drawn) [Vitamin K]		-0.3%
NC(=O)c1ccc[n+]([O-])c1 [Nicotinamide N-oxide]		-3.9%
O=C(O)C[C@@H](O)C(=O)O [D-(+)-Malic acid]		0.4%
COc1ccc(-c2coc3cc(O)ccc3c2=O)cc1O [Calycosin]		-0.6%
O=c1[nH]cnc2c1ncn2[C@@H]1O[C@H](CO)[C@@H](O)[C@H]1O [Inosine]		0.1%
Cc1cccc(O)c1O [3-Methylcatechol]		-0.2%
CCCCC(CC)CCC(=O)O (stereo not drawn) [4-Ethyloctanoic acid]		-0.1%
CC(/C=C/C=C(\C)C(=O)O)=C\C=C\C=C(C)\C=C\C=C(/C)C(=O)O [Transcrocetinate disodium]	2.1%	
Oc1cc(O)c2c(c1)O[C@@H](c1cc(O)c(O)c(O)c1)[C@H](O)C2 [(-)-Gallocatechin]		-0.6%
OCc1cn[nH]c1 [4-Hydroxymethylpyrazole]		0.4%
CC(C)=CCc1c(O)cc(O)c2c(=O)c(-c3ccc(O)cc3)coc12 [Lupiwighteone]		63.3%
C[N+](C)(C)[C@@H](Cc1c[nH]c(=S)[nH]1)C(=O)[O-] [Ergothioneine]		1.1%
C=C(C)[C@@H](CC=C(C)C)C[C@@]12C[C@@H](CC=C(C)C)C(C)(C)[C@@](CC=C(C)C)(C(=O)C(C(=O)c3ccc(O)c(O)c3)=C1O)C2=O [Garcinol]		-2.4%
COc1ccc(C[C@@H]2c3cc(Oc4cc(C[C@@H]5c6cc(OC)c(OC)cc6CCN5C)ccc4O)c(OC)cc3CCN2C)cc1 [Neferine]		17.4%
Nc1ccn([C@@H]2O[C@H](CO)[C@@H](O)[C@@H]2O)c(=O)n1 [Cytarabine]		-1%

Structure (SMILES)	OC43 Inhibition rate (OC43 Inhibition rate, 24 h)	OC43 Inhibition rate
COc1c2ccoc2c(OC[C@@H](O)C(C)(C)O)c2oc(=O)ccc12 [Byakangelicin]		4.1%
CC1(C)[C@H]2CC[C@]1(C)C(=O)C2 [Camphor]		7.2%
COC(=O)[C@@]1(C)CC[C@]2(C(=O)O)CC[C@]3(C)C(=CC[C@@H]4[C@@]5(C)C[C@H](O)[C@H](O)[C@@](C)(CO)[C@@H]5CC[C@]43C)[C@@H]2C1 [Phytolaccagenin]		2.8%
O=C(CCCCCCCCc1ccc(O)cc1)c1c(O)cccc1O [Malabaricone B]		54%
OC[C@H]1O[C@H](Oc2ccc(O)cc2)[C@H](O)[C@@H](O)[C@@H]1O [α-Arbutin]		-1.8%
O=Cc1ccc(O)cc1 [p-Hydroxybenzaldehyde]		2.7%
N[C@@H](Cc1ccc(O)c(I)c1)C(=O)O [H-Tyr(3-I)-OH]		5.6%
O=C(O)[C@H]1O[C@@H](Oc2cc3oc(-c4ccccc4)cc(=O)c3c(O)c2O)[C@H](O)[C@@H](O)[C@@H]1O [Baicalin]		1.8%
CC(C)CCCCCCCCC[C@@H]1CC(=O)N[C@@H](CCC(=O)O)C(=O)N[C@@H](CC(C)C)C(=O)N[C@H](CC(C)C)C(=O)N[C@@H](C(C)C)C(=O)N[C@@H](CC(=O)O)C(=O)N[C@H](CC(C)C)C(=O)N[C@@H](CC(C)C)C(=O)O1 [Surfactin] (EL[dL]VD[dL]L; linker N-C via X2)		0.1%
C[C@H](CCC(=O)NCCS(=O)(=O)O)[C@H]1CC[C@H]2[C@@H]3CC[C@@H]4C[C@H](O)CC[C@]4(C)[C@H]3CC[C@]12C [Taurolithocholic acid (sodium salt)]		-0.7%
Cc1cc(=O)oc2c(O)c(O)ccc12 [4-Methyldaphnetin]		2.8%
C/C=C/C=C/C(=O)O [Potassium sorbate]	1.3%	
COc1ccc(CCNC(=O)/C=C/c2ccc(O)c(O)c2)cc1 [N-Caffeoyl O-methyltyramine]		4%
COc1cc(C(=O)O)cc(OC)c1OC [3,4,5-Trimethoxybenzoic acid]		-2.1%
CC(C)CCC[C@@H](C)[C@H]1CC[C@H]2[C@@H]3CC[C@H]4C[C@@H](O)CC[C@]4(C)[C@H]3CC[C@]12C [5α-Cholestan-3β-ol]		-0.2%
CC(=O)c1c(O)cc(O)cc1O [Phloracetophenone]		-1%
CC1=C(CCC(=O)O)c2cc3nc(cc4[nH]c(cc5[nH]c(cc1n2)c(C)c5CCC(=O)O)c(CCC(=O)O)c4C)C(CCC(=O)O)=C3C [Coproporphyrin III]		24.8%
CC1(C)[C@@H](O)CC[C@]2(C)[C@H]3C(=O)C=C4[C@H]5C[C@@](C)(C(=O)O)CC[C@]5(C)CC[C@@]4(C)[C@]3(C)CC[C@@H]12 [18α-Glycyrrhetinic acid]		2.6%
O=C(O)[C@@H](O)CO [L-Glyceric acid (sodium)]		0.3%
CCC(C)CC(=O)O (stereo not drawn) [3-Methylvaleric Acid]		-0.4%
CC(=O)O[C@@H](CC=C(C)C)C1=CC(=O)c2c(O)ccc(O)c2C1=O [Acetylalkannin]		4.1%
CC(/C=C/C(=O)NO)=C\[C@@H](C)C(=O)c1ccc(N(C)C)cc1 [Trichostatin A]		-3.1%

Copied from above for reference:
Structure (SMILES)	OC43 Inhibition rate (OC43 Inhibition rate, 24 h)	OC43 Inhibition rate
COc1cc(C(=O)O)cc(OC)c1OC [3,4,5-Trimethoxybenzoic acid]		-2.1%
CC(C)CCC[C@@H](C)[C@H]1CC[C@H]2[C@@H]3CC[C@H]4C[C@@H](O)CC[C@]4(C)[C@H]3CC[C@]12C [5α-Cholestan-3β-ol]		-0.2%
CC(=O)c1c(O)cc(O)cc1O [Phloracetophenone]		-1%
